Library screening results

The values are deposited in ChEMBL (CHEMBL3988442, “University of Dundee, Small-Polar-MMV Screening Library” (2021)).

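Viability assay of Plasmodium falciparum sporozoites; the read-out is not stated. The concentration is filed as 10 mM, unlikely as a test dose, so the dose is not known. The record gives no direction; compounds that gave an IC50 in retests scored well above the rest, so higher reads as lower viability. Strong results were mostly tested again. Of about 34,000 compounds tested this way, about 280 (0.84%) reached 50% or more in at least one test.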

Each number is a percent effect as filed. The record does not define 0% and 100%; most values in the screen are far below 50% and negative numbers occur (in some assays of this library far below -100). Compounds were drawn at random from those tested, without regard to their results. Two or more numbers in one place are separate tests of the same structure; such repeats can differ widely.

| Compound | percent effect |
|---|---|
| `Cc1ccc(OC2(C(=O)O)CCN(C(=O)c3ccsc3)CC2)cn1` | -12.9 |
| `COCCN1CCN(c2nc(O)cc(Cc3ccccc3F)n2)CC1` | -1.374 |
| `Cc1cc(C)n(CC(=O)N(C)Cc2csc(-c3cccs3)n2)c(=O)n1` | 5.794 |
| `CCS(=O)(=O)N1CCC(c2nnc(CN3CCOCC3)n2C)CC1` | -6.009 |
| `COc1c(CNCCNC(=O)c2ccc(C)cc2)c(C)nn1C` | -2.423 |
| `CC(C)c1nnc2n1CCN(C(=O)c1ccc(OCC(N)=O)cc1)C2` | -11.79 |
| `O=C(CCNC(=O)c1ccccc1)Nc1ccncc1` | -12.74 |
| `CCCN1CCCC1Cn1nc(C)cc1C` (stereo not drawn) | 8.162 |
| `COCC(=O)N1CCC(C)(c2cc(O)[nH]n2)CC1` | 2.477 |
| `CC(=O)c1ccc(Cl)c(Cl)c1OCC(=O)NC(N)=O` | 5.257 |
| `COCc1ccccc1C(=O)N(C)Cc1ncc(C)c(OC)c1C` | -3.122 |
| `COc1cc(CN(CCCN(C)C)Cc2ccccn2)cc2c1OCO2.O=C(O)CC(O)(CC(=O)O)C(=O)O` | 0.6662 |
| `Cc1noc(C)c1C(=O)N1CCCC(c2cc(C(F)(F)F)[nH]n2)C1` (stereo not drawn) | 14.88 |
| `Cc1cc(CNC2CCCN(c3cccnn3)C2)no1` (stereo not drawn) | 5.453 |
| `N#Cc1ccc(Cn2cncn2)c(F)c1` | 5.818 |
| `COc1ccc(C(CO)NC(=O)Nc2cccnc2)cc1` (stereo not drawn) | 0.3529 & 9.158 & 13.05 |
| `CNc1nc(CNC(=O)Nc2ccccc2SC)cs1` | 3.792 |
| `Cc1cnn(C2CN(CC(=O)NCc3ccccn3)C2)c1` | 8.394 |
| `COCCN1CCCn2c(nc(Cn3cncn3)cc2=O)C1.O=C(O)C(F)(F)F` | -33.29 |
| `CNC(=O)CN1C(=O)CCC12CCCN(Cc1ccccn1)C2` (stereo not drawn) | -3.935 |
| `COCC(=O)N1CCC2(CCC2NC(=O)c2ccn(C)c2)CC1` (stereo not drawn) | 1.178 |
| `CCOC(=O)N1CCC2(CCNC2)C1.Cl` (stereo not drawn) | 1.711 |
| `COCCNc1ncc(-c2cc(C)no2)c(-c2ccco2)n1` | 14.44 |
| `O=c1[nH][nH]cc1-c1ccnc(NCCc2cccc(O)c2)n1` | -7.875 |
| `O=C(c1cnccn1)N1CCCC(Cc2cccc3ncccc23)C1` (stereo not drawn) | 11.05 |
| `CCc1[nH]ncc1C(=O)N1CCCN(Cc2cnn(C)c2)CC1` | 4.162 |
| `CCCc1noc(CN2CCCC2c2noc(C3CC3)n2)n1` (stereo not drawn) | 6.568 |
| `Cc1ccc2oc(C(=O)N3CCCC(n4nc(C)nc4C)C3)cc2n1` (stereo not drawn) | 11.04 |
| `Cc1ccccc1C1(C(=O)NCCN2CCCC(C)C2)CCOCC1` (stereo not drawn) | 12.21 |
| `O=C(O)C(F)(F)F.O=C(O)C(F)(F)F.[H][C@@]12CN(Cc3ccco3)C[C@H](C(=O)Nc3cccnc3)[C@]1([H])CCO2` | -1.789 |
| `Cc1nc(C(=O)N2CCC(c3cc(CCO)n(C)n3)C2)co1` (stereo not drawn) | 13.74 |
| `Cc1cnn(CC2CN(Cc3cccc(OCC(N)=O)c3)CCO2)c1` (stereo not drawn) | -2.944 |
| `Cc1ccccc1CSc1nc(N)cc(N2C[C@H](O)[C@@H](N(C)C)C2)n1` | -0.2307 |
| `Cc1ccoc1C(=O)NC1CCN(Cc2ccccc2C#N)CC1` | 9.825 |
| `O=C(c1cn(-c2ccccc2)nn1)N1CCCC(n2cccn2)C1` (stereo not drawn) | -0.5402 |
| `Cc1noc(C)c1CCC(=O)NCC1(O)CCN(c2ccccn2)C1` (stereo not drawn) | 8.46 |
| `Cc1nc(C)n(CC2CN(Cc3cscn3)CCO2)n1` (stereo not drawn) | 3.265 |
| `CN(C)Cc1nnc2n1CCN(Cc1ccccn1)CC2` | -6.813 |
| `Cc1ccc(OCCC(=O)N(C)CCC#N)cc1C` | 1.597 |
| `CSCCC1c2nc[nH]c2CCN1Cc1cc(Cl)ccc1O` (stereo not drawn) | -4.936 |
| `COc1cccc(CCNC(=O)CN2CCN(C)CC2C)c1` (stereo not drawn) | 2.59 |
| `CC(C)c1cc(CN2CCNCC2)no1` | 47.94 & -5.657 & 1.275 |
| `CC(=O)N1CCCC1c1cccc(Cc2ccc(F)cc2)n1` (stereo not drawn) | -7.497 |
| `CC(C(=O)NCc1cccc(N2CCCC2=O)c1)S(C)(=O)=O` (stereo not drawn) | -11.15 |
| `CCC(=O)N1CCC2(CC1)CN(CCO)Cc1ccccc12.O=C(O)C(F)(F)F` | 6.408 |
| `CC(C)NC(=O)N1CC(=O)c2sc(NC3CCCCC3)nc2C1` | 8.552 |
| `COc1cc(C(=O)N2CCCC(c3cc(C)[nH]n3)C2)cc(OC)c1C` (stereo not drawn) | 4.572 |
| `Cc1ccc(CN2CCN(Cc3cc(C)n[nH]3)CC2CCO)cc1` (stereo not drawn) | 11.58 |
| `CC(CCn1cccn1)Nc1ccc(-c2nccn2C)nn1` (stereo not drawn) | -29.15 & -7.032 |
| `[H][C@@]12CCN(C(=O)c3ccncn3)C[C@@]1([H])O[C@@H](C)C2` | -210.1 |
| `CCc1ccc(S(=O)(=O)Nc2cn(C)cc(Br)c2=O)cc1` | -7.412 |
| `Cc1ccc(OCc2occc2C(=O)N2CCCCC(N)C2)cc1` (stereo not drawn) | 3.374 |
| `COc1ccccc1-c1noc(CN2CCCC2Cn2cccn2)n1` (stereo not drawn) | -5.637 |
| `COCCCn1ccc(NS(=O)(=O)c2cc(F)c(C)cc2F)n1` | -13.71 |
| `O=C(O)C(F)(F)F.O=C1CCC2(CCCN(C(=O)Cc3cccnc3)C2)N1` (stereo not drawn) | 4.619 |
| `CC(C)(C)c1n[nH]cc1CNC1CCC(O)CC1` (stereo not drawn) | -9.311 |
| `Cc1cc2c(=O)n3c(nc2s1)CCN(C(=O)c1ccncc1)CC3` | -6.517 |
| `N#Cc1ccc(C(=O)N2CCC3(CC2)C(=O)Nc2ccccc23)cn1` | -18.45 |
| `CNS(=O)(=O)c1ccc(C(=O)NCCNc2ncccn2)cc1` | 4.645 |
| `Cc1noc(C)c1-c1cc(CCC2CN(C(=O)C(C)C)CCO2)ncn1` (stereo not drawn) | -7.156 |
| `O=C(O)C(F)(F)F.O=C1COC2(CCN(C(=O)C3CC=CC3)CC2)CN1Cc1cccnc1` | -6.559 |
| `[H][C@@]12C[C@@H](c3noc(C)n3)O[C@]1([H])CN(C(=O)c1cc(C)nn1CC)C2` | 3.853 |
| `Cl.c1cc(CNc2cnc(C3CCCN3)cn2)ccn1` (stereo not drawn) | 5.2 |
| `[H][C@@]12CCCO[C@]1([H])[C@H](Oc1cccnc1)CN2C(=O)c1cscn1` | 18.77 |
| `CC(C)(C)NC(=O)Cn1c(=O)n(Cc2ccco2)c2ncccc21` | 2.845 |
| `CCc1ccc(C(=O)Nc2ccc(CC3CC(=O)NC3=O)cc2)cc1` (stereo not drawn) | -12.63 |
| `O=C(Nc1ccccn1)C1=NN(c2ccccc2)C(=O)CN1` | 14.23 |
| `CN1CCC(c2n[nH]cc2-c2ccnc(N)c2)C1` (stereo not drawn) | 2.531 |
| `Cc1occc1C(=O)N1CCCC2(CCN(c3ccsc3)C2=O)C1` (stereo not drawn) | -44.36 |
| `CC(C)c1cc(N2CC[C@H](F)C2)n2nccc2n1` | -0.5513 |
| `CN(Cc1ccccc1)CC(O)Cn1cnc2c(cnn2C)c1=O` (stereo not drawn) | 7.085 |
| `Cc1ncnc2c1CCN(CC(=O)N(C)C)CC2.O=C(O)C(F)(F)F` | 0.1751 |
| `N#Cc1ccc(OCC(O)CN2CCN(c3nccs3)CC2)cc1` (stereo not drawn) | -4.167 |
| `Cc1nc(N2CCN(C)CC2)ncc1C(=O)N1CC(C)(C)C(C)(O)C1` (stereo not drawn) | -2.999 |
| `Cc1c(CN2CCCC2(C)C(=O)N2CCOCC2)cnn1C` (stereo not drawn) | 10.86 |
| `O=C(O)C(F)(F)F.O=C1CCCC2(CCN(C(=O)c3ccccn3)CC2)N1` | 7.699 |
| `Cc1ccc(-n2nnc(CC(=O)N3CCOCC3)c2C)cc1` | 6.004 & -11.34 & 9.381 |
| `O=C(Cc1cn2ccccc2n1)N1CCCC(n2cccn2)C1` (stereo not drawn) | -1.688 |
| `COc1c(C2CCCN2C(=O)c2cccnc2N(C)C)c(C)nn1C` (stereo not drawn) | 1.823 |
| `Cc1ccc(C(=O)N2CCC3(CC2)CC(N2CCOCC2)C3)cc1.O=C(O)C(F)(F)F` | -1.534 |
| `CC(=O)Nc1nc(C(=O)N2CCCC(n3nc(C)nc3C)C2)cs1` (stereo not drawn) | -11.41 & -18.4 & -5.58 |
| `O=S1(=O)c2ccccc2C(O)CN1CCO` (stereo not drawn) | -25.61 |
| `CN(CCO)Cc1nnc(C2CCN(C(=O)c3cccnc3)CC2)n1C` | 0.8584 |
| `NC(=O)CCC1CCCN(c2ccc3c(Cl)ccnc3c2F)C1` (stereo not drawn) | -30.68 & -22.35 |
| `O=C(c1cnc(-c2ncccn2)s1)N1CCCC(n2cccn2)C1` (stereo not drawn) | 4.052 |